The source gives many values for each of these; only a part stands here.
Tested on: 867 cancer cell lines
Test: PRISM assay (barcoded cell line screening, 5 days);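 further: top test concentration 10 mM in eight-point dilution series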
Assay type: cell-based
Design: scale not given here
Protocol: The principle of the PRISM assay has been described elsewhere and was conducted as previously outlined by the PRISM team at the Broad Institute.^[ [14], [31] ^] In PRISM (MTS027) experiments, KG‐FP‐003 was tested across 867 different cancer cell lines. Cells were treated with eight concentration gradients, ranging from 4.6 nM to […], in triplicate dilutions over a period of five days. Each plate was treated with 20 µM bortezomib as a positive control and DMSO as a negative control. Three replicate experiments were performed for each compound. The resulting data were analyzed using GraphPad PRISM 9.5.

Structure (SMILES): CNC(=O)c1cc2c(c(F)c1-c1c(Cl)c(F)cc3c1C[C@@](CN[C@H]1CC[C@H](C(=O)N4CCC(CC5CCN(C(=O)COc6ccc(N7CCC(=O)NC7=O)c(C)c6)CC5)CC4)CC1)(c1ccccc1)O3)[C@@H](O)[C@@H](C)C2 [KG-FP-003]
- KG-FP-003-AUC (NCIH661_LUNG, PR500): 0.37
- KG-FP-003-AUC (NCIH727_LUNG, PR500): 1.00
- KG-FP-003-AUC (NCIH747_LARGE_INTESTINE, PR500): 0.86
- KG-FP-003-AUC (NCIH838_LUNG, PR500): 0.74
- KG-FP-003-AUC (NCIH841_LUNG, PR500): 0.90
- KG-FP-003-AUC (NCIH1048_LUNG, PR500): 1.00
- KG-FP-003-AUC (NCIH1092_LUNG, PR300): 0.77
- KG-FP-003-AUC (NCIH1299_LUNG, PR500): 0.90
- KG-FP-003-AUC (NCIH1341_LUNG, PR300): 0.98
- KG-FP-003-AUC (NCIH1355_LUNG, PR500): 0.92
- KG-FP-003-AUC (NCIH1373_LUNG, PR500): 0.99
- KG-FP-003-AUC (NCIH1435_LUNG, PR500): 1.00
- KG-FP-003-AUC (NCIH1437_LUNG, PR500): 0.87
- KG-FP-003-AUC (NCIH1563_LUNG, PR500): 0.42
- KG-FP-003-AUC (NCIH1568_LUNG, PR500): 0.77
- KG-FP-003-AUC (NCIH1573_LUNG, PR500): 0.89
- KG-FP-003-AUC (NCIH1581_LUNG, PR500): 1.00
- KG-FP-003-AUC (NCIH1648_LUNG, PR500): 0.99
- KG-FP-003-AUC (NCIH1650_LUNG, PR500): 0.83
- KG-FP-003-AUC (NCIH1651_LUNG, PR500): 1.00
- KG-FP-003-AUC (NCIH1693_LUNG, PR500): 0.63
- KG-FP-003-AUC (NCIH1703_LUNG, PR500): 0.85
- KG-FP-003-AUC (NCIH1792_LUNG, PR500): 0.99
- KG-FP-003-AUC (NCIH1793_LUNG, PR500): 1.00
- KG-FP-003-AUC (NCIH1838_LUNG, PR500): 0.86
- KG-FP-003-AUC (NCIH1915_LUNG, PR500): 0.91
- KG-FP-003-AUC (NCIH1944_LUNG, PR500): 0.99
- KG-FP-003-AUC (NCIH1975_LUNG, PR500): 0.70
- KG-FP-003-AUC (NCIH2004RT_SOFT_TISSUE, PR300): 0.59
- KG-FP-003-AUC (NCIH2009_LUNG, PR500): 0.99
- KG-FP-003-AUC (NCIH2023_LUNG, PR500): 0.79
- KG-FP-003-AUC (NCIH2030_LUNG, PR500): 0.92
- KG-FP-003-AUC (NCIH2052_PLEURA, PR500): 0.63
- KG-FP-003-AUC (NCIH2087_LUNG, PR500): 0.86
- KG-FP-003-AUC (NCIH2110_LUNG, PR500): 0.97
- KG-FP-003-AUC (NCIH2122_LUNG, PR500): 0.79
- KG-FP-003-AUC (NCIH2126_LUNG, PR500): 0.91
- KG-FP-003-AUC (NCIH2170_LUNG, PR500): 0.98
- KG-FP-003-AUC (NCIH2171_LUNG, PR300): 0.85
- KG-FP-003-AUC (NCIH2172_LUNG, PR500): 0.77
- KG-FP-003-AUC (NCIH2196_LUNG, PR300): 1.00
- KG-FP-003-AUC (NCIH2228_LUNG, PR500): 0.89
- KG-FP-003-AUC (NCIH2347_LUNG, PR500): 0.54
- KG-FP-003-AUC (NCIH2444_LUNG, PR500): 0.54
- KG-FP-003-AUC (NCIH2452_PLEURA, PR500): 1.00
- KG-FP-003-AUC (NCO2_HAEMATOPOIETIC_AND_LYMPHOID_TISSUE, PR300): 0.91
- KG-FP-003-AUC (NIHOVCAR3_OVARY, PR300): 0.59
- KG-FP-003-AUC (NOMO1_HAEMATOPOIETIC_AND_LYMPHOID_TISSUE, PR300): 0.91
- KG-FP-003-AUC (NOZ_LIVER, PR300): 0.86
- KG-FP-003-AUC (NP2_CENTRAL_NERVOUS_SYSTEM, PR300): 0.99
- KG-FP-003-AUC (NP3_CENTRAL_NERVOUS_SYSTEM, PR300): 0.98
- KG-FP-003-AUC (NP5_CENTRAL_NERVOUS_SYSTEM, PR300): 0.78
- KG-FP-003-AUC (NUDHL1_HAEMATOPOIETIC_AND_LYMPHOID_TISSUE, PR300): 0.87
- KG-FP-003-AUC (NUGC3_STOMACH, PR500): 0.60
- KG-FP-003-AUC (NUGC4_STOMACH, PR500): 0.99
- KG-FP-003-AUC (NZOV9_OVARY, PR300): 0.81
- KG-FP-003-AUC (OACM51_OESOPHAGUS, PR300): 1.00
- KG-FP-003-AUC (OAW42_OVARY, PR500): 0.94
- KG-FP-003-AUC (OC314_OVARY, PR500): 0.40
- KG-FP-003-AUC (OC316_OVARY, PR500): 0.56
- KG-FP-003-AUC (OCIAML2_HAEMATOPOIETIC_AND_LYMPHOID_TISSUE, PR300): 0.80
- KG-FP-003-AUC (OCIAML5_HAEMATOPOIETIC_AND_LYMPHOID_TISSUE, PR300): 0.88
- KG-FP-003-AUC (OCIC4P_OVARY, PR300): 0.91
- KG-FP-003-AUC (OCIC5X_OVARY, PR300): 0.61
- KG-FP-003-AUC (OCILY3_HAEMATOPOIETIC_AND_LYMPHOID_TISSUE, PR300): 0.86
- KG-FP-003-AUC (OCILY18_HAEMATOPOIETIC_AND_LYMPHOID_TISSUE, PR300): 0.79
- KG-FP-003-AUC (OCILY19_HAEMATOPOIETIC_AND_LYMPHOID_TISSUE, PR300): 0.91
- KG-FP-003-AUC (OCILY132_HAEMATOPOIETIC_AND_LYMPHOID_TISSUE, PR300): 0.71
- KG-FP-003-AUC (OCIM1_HAEMATOPOIETIC_AND_LYMPHOID_TISSUE, PR300): 0.92
- KG-FP-003-AUC (OCIP5X_OVARY, PR300): 0.79
- KG-FP-003-AUC (OCUG1_BILIARY_TRACT, PR300): 0.87
- KG-FP-003-AUC (OE19_OESOPHAGUS, PR500): 0.98
- KG-FP-003-AUC (OE21_OESOPHAGUS, PR500): 0.75
- KG-FP-003-AUC (OE33_OESOPHAGUS, PR500): 0.89
- KG-FP-003-AUC (ONCODG1_OVARY, PR500): 0.69
- KG-FP-003-AUC (ONDA9_CENTRAL_NERVOUS_SYSTEM, PR300): 0.96
- KG-FP-003-AUC (ONS76_CENTRAL_NERVOUS_SYSTEM, PR300): 0.64
- KG-FP-003-AUC (ONS76_CENTRAL_NERVOUS_SYSTEM, PR500): 0.64
- KG-FP-003-AUC (OSC20_UPPER_AERODIGESTIVE_TRACT, PR300): 0.49
- KG-FP-003-AUC (OSRC2_KIDNEY, PR500): 0.91
- KG-FP-003-AUC (OUMS23_LARGE_INTESTINE, PR500): 0.55
- KG-FP-003-AUC (OV7_OVARY, PR500): 0.58
- KG-FP-003-AUC (OV17R_OVARY, PR300): 0.79
- KG-FP-003-AUC (OV56_OVARY, PR500): 0.75
- KG-FP-003-AUC (OVCAR8_OVARY, PR500): 0.52
- KG-FP-003-AUC (OVISE_OVARY, PR500): 0.52
- KG-FP-003-AUC (OVK18_OVARY, PR500): 0.99
- KG-FP-003-AUC (OVKATE_OVARY, PR300): 0.79
- KG-FP-003-AUC (OVTOKO_OVARY, PR500): 0.85
- KG-FP-003-AUC (OZ_BILIARY_TRACT, PR300): 0.74
- KG-FP-003-AUC (P12ICHIKAWA_HAEMATOPOIETIC_AND_LYMPHOID_TISSUE, PR300): 0.75
- KG-FP-003-AUC (PA1_OVARY, PR300): 0.89
- KG-FP-003-AUC (PACADD119_PANCREAS, PR300): 0.98
- KG-FP-003-AUC (PACADD137_PANCREAS, PR300): 0.98
- KG-FP-003-AUC (PACADD161_PANCREAS, PR300): 0.60

Reference: publication PMC12752627, “Discovery of a Potent and Selective TEAD Degrader with Durable Degradation Activity” (Advanced Science, 2025)
